Data from the supplement of paper PMC4683952.
Counter-ions that a name gives are not always drawn. The list shows a part of the results. Rule as the data show it: active = 2.5 or more and inactive = the rest. Most values lie within the scatter of the assay; repeated measurements hardly agree.

test system: Lgr5 (MarsCy1-Lgr5-EGFP, U2OS); assay: cell-surface Lgr5 expression (SCi1 fluorescence, background-subtracted) relative to WT control (fold of WT control); higher = more Lgr5 at the plasma membrane; settings: U2OS MarsCy1-Lgr5-EGFP stable; treatment time: overnight; library: Prestwick; 20 µM

SMILES	cell-surface Lgr5 expression
CN(C)CCC(c1ccc(Cl)cc1)c1ccccn1 (configuration not stated) [Chlorpheniramine maleate]	inactive: 0.978
COc1cc(=O)n(C)c2c(OCC(O)C(C)(C)O)cccc12 (configuration not stated) [Foliosidine]	inactive: 2.01
COC1=CC(=O)C[C@@H](C)[C@]12Oc1c(Cl)c(OC)cc(OC)c1C2=O [Griseofulvin]	inactive: 1.48
CN(C)CCCC1(c2ccc(F)cc2)OCc2cc(C#N)ccc21 (configuration not stated) [Citalopram Hydrobromide]	inactive: 2.2
O=C(O)CNC(=O)C(CS)Cc1ccccc1 (configuration not stated) [Thiorphan]	active: 2.79
CC(C)(C)NCC(O)c1ccc(O)c(CO)c1 (configuration not stated) [Salbutamol]	inactive: 1.89
Cc1c(OCC(F)(F)F)ccnc1C[S+]([O-])c1nc2ccccc2[nH]1 (configuration not stated) [Lansoprazole]	inactive: 1.3
COc1c(O)cc2c(c1O)[C@@H]1O[C@H](CO)[C@@H](O)[C@H](O)[C@H]1OC2=O [Bergenin monohydrate]	active: 2.65
O=C(NCC1CCCCN1)c1cc(OCC(F)(F)F)ccc1OCC(F)(F)F (configuration not stated) [Flecainide acetate]	active: 2.55
CC1CCc2cc(F)cc3c(=O)c(C(=O)O)cn1c23 (configuration not stated) [Flumequine]	inactive: 1.4
CCCCOc1ccc(OCCCN2CCOCC2)cc1 [Pramoxine hydrochloride]	inactive: 1.92
COc1cc(N)c(Cl)cc1C(=O)NC1CCN(Cc2ccccc2)CC1 [Clebopride maleate]	inactive: 0.807
O=C(c1ccc(OCCN2CCCCC2)cc1)c1c(-c2ccc(O)cc2)sc2cc(O)ccc12 [Raloxifene hydrochloride]	inactive: 2.29
CC(CN1c2ccccc2Sc2ccccc21)N(C)C (configuration not stated) [Promethazine hydrochloride]	inactive: 1.59
NS(=O)(=O)c1cc2c(cc1C(F)(F)F)NC(Cc1ccccc1)NS2(=O)=O (configuration not stated) [Bendroflumethiazide]	inactive: 2.37
CCOC(=O)C1=C(C)NC(C)=C(C(=O)OC)C1c1cccc([N+](=O)[O-])c1 (configuration not stated) [Nitrendipine]	inactive: 1.71
CCn1cc(C(=O)O)c(=O)c2cc(F)c(N3CCNCC3)cc21 [Norfloxacin]	inactive: 1.01
CC(C)(Oc1ccc(C2CC2(Cl)Cl)cc1)C(=O)O (configuration not stated) [Ciprofibrate]	inactive: 1.07
CC1=C(C(=O)O)N2C(=O)[C@@H](NC(=O)[C@H](N)c3ccc(O)cc3)[C@H]2SC1 [Cefadroxil]	inactive: 1.88
CNC1(C)C2CCC(C2)C1(C)C (configuration not stated) [Mecamylamine hydrochloride]	inactive: 1.49
CCC(C)(CN(C)C)OC(=O)c1ccccc1 (configuration not stated) [Amyleine hydrochloride]	inactive: 1.31

SMILES	cell-surface Lgr5 expression
CC(=C(CCO)SSCC1CCCO1)N(C=O)Cc1cnc(C)nc1N (stereo in doubt) [Fursultiamine Hydrochloride]	inactive: 1.18
C=C(NC(=O)C(=C)NC(=O)c1csc(C2=N[C@@H]3c4csc(n4)[C@H]4NC(=O)c5csc(n5)[C@H]([C@](C)(O)[C@@H](C)O)NC(=O)[C@H]5CSC(=N5)/C(=C/C)NC(=O)[C@H]([C@@H](C)O)NC(=O)c5csc(n5)[C@]3(CC2)NC(=O)[C@H](C)NC(=O)C(=C)NC(=O)[C@H](C)NC(=O)[C@H]([C@@H](C)CC)N[C@@H]2C=Cc3c([C@H](C)O)cc(nc3[C@H]2O)C(=O)O[C@@H]4C)n1)C(N)=O [Thiostrepton]	inactive: 1.38
Cn1c(=O)c2c(ncn2CC(O)CO)n(C)c1=O (configuration not stated) [Diprophylline]	inactive: 1.49
CC[C@]12CCCN3CCc4c(n(c5ccccc45)[C@@](O)(C(=O)OC)C1)[C@@H]32 [Vincamine]	inactive: 0.955
CC(CCc1ccc(O)cc1)NCCc1ccc(O)c(O)c1 (configuration not stated) [Dobutamine hydrochloride]	active: 3.06
Nc1ccc(S(N)(=O)=O)cc1 [Sulfanilamide]	inactive: 1.91
CCSc1ccc2c(c1)N(CCCN1CCN(C)CC1)c1ccccc1S2 [Thiethylperazine malate]	inactive: 1.1
CN(C)CCC(c1ccccc1)c1ccccn1 (configuration not stated) [Pheniramine maleate]	inactive: 1.45
CCN1CCCC1CNC(=O)c1cc(S(N)(=O)=O)ccc1OC (racemic) [Sulpiride]	inactive: 1.51
O=C(O)c1cc(=O)c2c(OCC(O)COc3cccc4oc(C(=O)O)cc(=O)c34)cccc2o1 [Cromolyn disodium salt]	inactive: 2.47
CCCCOc1ccc(CC(=O)NO)cc1 [Bufexamac]	inactive: 1.08
CC(=O)OC(C)C[N+](C)(C)C (configuration not stated) [Methacholine chloride]	inactive: 1.79
C=CCc1ccccc1OCC(O)CNC(C)C (configuration not stated) [Alprenolol hydrochloride]	inactive: 1.37
NC[C@H]1CC[C@H](C(=O)O)CC1 [Tranexamic acid]	inactive: 1.11
C=CC[N@@+]12CC[C@@]34c5ccccc5N5/C=C6/[C@H]7C[C@H]8[C@@]9(CC[N@@+]8(CC=C)C/C7=C/CO)c7ccccc7N(/C=C(/[C@@H](C[C@@H]31)/C(=C\CO)C2)[C@H]54)[C@@H]69 [Alcuronium chloride]	inactive: 1.73
CCCC(C(=O)OCCN(CC)CC)(c1ccccc1)c1ccccc1 [Proadifen hydrochloride]	inactive: 1.77
C[C@H](CCC(=O)NCC(=O)O)[C@H]1CC[C@H]2[C@@H]3[C@H](O)C[C@@H]4C[C@H](O)CC[C@]4(C)[C@H]3C[C@H](O)[C@]12C [Glycocholic acid]	inactive: 1.85
Clc1ccc(COC(Cn2ccnc2)c2ccc(Cl)cc2Cl)cc1 (configuration not stated) [Econazole nitrate]	inactive: 1.7
Clc1ccccc1C(c1ccccc1)(c1ccccc1)n1ccnc1 [Clotrimazole]	inactive: 1.25
Cc1c(C)c2c(c(C)c1O)CC[C@@](C)(CCC[C@H](C)CCC[C@H](C)CCCC(C)C)O2 (racemic) [Tocopherol (R,S)]	inactive: 0.889
CCN(CCCc1ccccc1)CCCc1ccccc1 [Alverine citrate salt]	inactive: 0.71

Some of the entries so far, in CSV form.
SMILES,cell-surface Lgr5 expression
C[C@H](CCC(=O)NCC(=O)O)[C@H]1CC[C@H]2[C@@H]3[C@H](O)C[C@@H]4C[C@H](O)CC[C@]4(C)[C@H]3C[C@H](O)[C@]12C [Glycocholic acid],inactive: 1.85
Clc1ccc(COC(Cn2ccnc2)c2ccc(Cl)cc2Cl)cc1 (configuration not stated) [Econazole nitrate],inactive: 1.7
Clc1ccccc1C(c1ccccc1)(c1ccccc1)n1ccnc1 [Clotrimazole],inactive: 1.25
